We go through 60 compounds from PubChem BioAssay AID445 (National Center for Advancing Translational Sciences (NCATS), 2006).

This is one part of the list. Further columns of the screen follow, without active or inactive calls. Most of these compounds were active or inconclusive in the main read-out, so they are no random draw. The note in brackets gives the kind of curve behind each potency; many fits are weak.

The nature of the test: IkB Signaling. As to conditions: ABC-DLBCL IkBa-CBG/CBR dual luciferase ratio (green luciferase fused to IkBa over red control in OCI-Ly3 lymphoma cells), 4 h. The essentials: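 In this assay, an IκBα–CBG68 fusion accumulates when IKK-driven degradation is blocked; native CBR normalizes for cell number. OCI-Ly3 cells were treated 4 h with compound and doxycycline, then green and red light read after Chroma-Glo addition.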
Setting [1] is: measured here: control luc red channel unless noted.

The term AC50 denotes the midpoint of the concentration-response curve, whichever way the signal moves. As for `Cc1ccccc1Cn1c2ccccc2c2cnn(CC(=O)NCCc3ccc(Cl)cc3)c(=O)c21`, the half-maximal activity concentration (AC50) under setting [1] is 6.31 µM [falling, partial curve].
On to `Cc1ccc2[nH]c3c(=O)n(CC(=O)N4CCCC(C)C4)ncc3c2c1` (stereo unspecified), for which the concentration at half-maximal activity (AC50) under setting [1] is 39.8 µM [falling, single point].
Still for that read-out and setting: the value for `CC(CCCc1ccccc1)NC(=O)c1nn(-c2ccc(Cl)cc2)nc1CO` (stereo unspecified) was 12.6 µM [falling, partial curve]; that for `Cn1ncc(C#N)c1/N=C/N(Cc1ccccc1)Cc1ccccc1` was 25.1 µM [falling, partial curve].
Same read-out and setting: for `CCOc1ccccc1NC(=O)c1cc2c(=O)[nH]c3ccccc3c2s1` the value was 0.02 µM [falling, full curve].
The same measure, in the same setting: for `O=C(NC1CCCCC1)c1ccc2c(c1)N(Cc1cccc(Cl)c1)C(=O)c1ccccc1S2=O` (stereo unspecified) the value was 20 µM [falling, single point].
As for `CCc1ccc(-c2nc(CSCC(=O)NCc3ccc(C)cc3)c(C)o2)cc1`, the AC50 under setting [1] was 15.8 µM [falling, partial curve].
On the same count and under the same terms, the value for `O=C(Nc1cccnc1)c1cn(-c2ccccc2)nc1-c1cccs1` was 20 µM [falling, partial curve]; that for `CC(=O)c1cc2c(cc1N/C(=N/S(=O)(=O)c1ccc(F)cc1)c1ccccc1)OCO2` was 3.16 µM [rising, partial curve].
Turning to `O=C(Cn1ncc2c3ccccc3n(Cc3cccc(Cl)c3)c2c1=O)N1CCCCCC1`, under setting [1], the AC50 was 20 µM [falling, single point].
In the case of `CCOc1ccc(CCNC(=O)Cn2c(C)c3cnn(-c4ccccc4)c(=O)c3c2C)cc1`, under setting [1], the AC50 was 10 µM [falling, single point].
Same read-out and setting: for `CCOc1ncccc1C(=O)Nc1cccc(C(=O)Nc2cccc(S(=O)(=O)CCO)c2)c1` the value was 3.16 µM [falling, full curve, poor fit]; for `N#CCCn1c(SCC(=O)c2c[nH]c3ccccc23)nc2ccccc21`, 3.98 µM [falling, partial curve].
Same read-out and setting: the value for `Cc1ccc(-n2nnnc2SCc2nnc(-c3ccccc3Br)o2)cc1` was 39.8 µM [falling, single point]; that for `CCOc1ccc(CC(=O)NCc2ccc3c(c2)CCN3C(C)=O)cc1OCC` was 3.98 µM [rising, partial curve].
On the same count and under the same terms, the value for `CC(C)(C)OC(=O)N1CCC(c2c(C(=O)N3CCN(c4ncccn4)CC3)cnn2-c2cccc(F)c2)CC1` was 3.98 µM [falling, partial curve]; that for `Cc1ccc(C)c(S(=O)(=O)c2nnn3c2nc(N2CCCCC2)c2sccc23)c1` was 7.94 µM [falling, full curve].
As to `COc1ccc(OC)c(NC(=O)Cn2cc(C(=O)c3ccc(Cl)cc3)c(=O)c3cc(OC)ccc32)c1`, the half-maximal activity concentration (AC50) under setting [1] was 20 µM [falling, partial curve].
On the same count and under the same terms, for `COc1cc2c(cc1OC)n(CC(=O)c1ccc(C)cc1)c(=O)n1nc(CCn3nc(C)cc3C)nc21` the value was 39.8 µM [falling, single point]; for `COc1ccc(NC(=O)c2ccc3c(c2)CCN3S(=O)(=O)c2ccccc2)cc1`, 25.1 µM [falling, single point].
The same measure, in the same setting: for `Cc1cccc(-c2c3c(=O)n(C)c(=O)n(C)c3c3cccnn23)c1` the value was 3.16 µM [rising, full curve].
The same measure, in the same setting: for `Cc1noc2ncnc(N3CCCC(C(=O)Nc4cccc(C(F)(F)F)c4)C3)c12` (stereo unspecified) the value was 15.8 µM [falling, partial curve].
`CCc1ccc(NC(=O)c2ccc(F)c(S(=O)(=O)N3CCN(c4cc(C)ccc4C)CC3)c2)cc1`: under setting [1], the AC50 was 10 µM [falling, partial curve].
On the same count and under the same terms, the value for `CC(C)c1ccc(NC(=O)Cn2c(=O)oc3cc(S(=O)(=O)N4CCCC4)ccc32)cc1` was 12.6 µM [falling, partial curve].
Same read-out and setting: for `COc1ccc(-c2nc(S(=O)(=O)c3ccc(C)cc3)c(NCc3ccccc3)o2)cc1` the value was 10 µM [falling, full curve, poor fit]; for `CCc1c(C)c(C#N)c2nc3ccccc3n2c1Nc1cccc(C(F)(F)F)c1`, 10 µM [falling, partial curve]; for `O=C(NCCCN1CCN(c2ccc(F)cc2)CC1)c1ccc2nc(CCc3ccccc3)oc2c1`, 20 µM [falling, partial curve].
On the same count and under the same terms, for `C=CCn1c(SCC(=O)/C(C#N)=C(\C)N)nc2sc(CC)cc2c1=O` the value was 25.1 µM [falling, single point].
As to `CCCOCc1cc(CN2CCN(c3ccccc3OC)CC2)c(O)c2ncccc12`, the AC50 under setting [1] was 12.6 µM [falling, partial curve].
Still for that read-out and setting: for `O=C(NCc1ccc(Cl)cc1)c1cnc(N2CCOCC2)c2ccccc12` the value was 20 µM [falling, single point]; for `Cc1ccc(CSCCNC(=O)CN(c2cccc(C)c2C)S(=O)(=O)c2ccccc2)cc1`, 10 µM [falling, partial curve]; for `CC1CCCN(S(=O)(=O)c2cc(C(=O)NCCc3ccccc3)n(C)c2)C1` (stereo unspecified), 10 µM [falling, partial curve].
On the same count and under the same terms, for `COc1ccc(CNC(=O)c2ccc3c(c2)CCN3S(=O)(=O)c2ccccc2)cc1` the value was 15.8 µM [falling, partial curve]; for `COc1ccc(N2CCN(c3nc4ccccc4n4c(C)nnc34)CC2)cc1`, 31.6 µM [falling, partial curve, poor fit]; for `CCOC(=O)c1ccc(NC(=O)c2cc(S(=O)(=O)N3CCOCC3)ccc2O)cc1`, 10 µM [falling, partial curve].
Same read-out and setting: the value for `O=C(CCCSc1nc(-c2ccco2)cc(C(F)(F)F)n1)NCc1cccs1` was 25.1 µM [falling, partial curve].
For the compound `CCOc1ccc(C(=O)Nc2ccc3nc4c(c(Nc5ccccc5OC)c3c2)CCCC4)cc1`, the concentration at half-maximal activity (AC50) under setting [1] was 10 µM [falling, partial curve].
Regarding `O=C(Nc1nc(-c2ccc(S(=O)(=O)N3CCCCCC3)cc2)cs1)c1cccs1`, the AC50 under setting [1] is 5.01 µM [falling, full curve, poor fit].
The same measure, in the same setting: for `O=C(CC1N=C2c3ccccc3N=C(SCC(=O)Nc3ccccc3F)N2C1=O)NCc1ccc2c(c1)OCO2` (stereo unspecified) the value was 39.8 µM [falling, single point]; for `Cc1cc(O)c(-c2n[nH]c3c2C(c2cccc(O)c2)N(Cc2cccnc2)C3=O)cc1Cl` (stereo unspecified), 12.6 µM [falling, partial curve].
Turning to `COc1cc(OC)c(NC(=O)C(C)n2nc(-c3ccc(C)cc3)c3c(c2=O)CCCC3)cc1Cl` (stereo unspecified), under setting [1], the half-maximal activity concentration (AC50) was 10 µM [falling, partial curve].
Still for that read-out and setting: the value for `N#Cc1ccccc1NC(=O)C(=O)NCC(c1cccnc1)N1CCc2ccccc21` (stereo unspecified) was 25.1 µM [falling, single point].
For `c1ccc(-n2ncc(-c3nn[nH]n3)n2)cc1`, the half-maximal activity concentration (AC50) by setting is: (measured here: IkB-luc green channel) 1.58 µM [rising, single point]; (measured here: control luc red channel) 25.1 µM [falling, partial curve].
On to `COC(=O)c1ccc(NC(=O)CSc2nc3cc4ccccc4cc3[nH]2)cc1`, for which the half-maximal activity concentration (AC50) under setting [1] was 0.0398 µM [falling, full curve, poor fit].
As for `CCOC(=O)CC(NC(=O)CCc1c(C)nc2cc(-c3ccccc3)nn2c1C)c1ccc(C)cc1` (stereo unspecified), under setting [1], the half-maximal activity concentration (AC50) is 1.26 µM [falling, full curve].
Still for that read-out and setting: the value for `O=C(c1ccccc1)c1ccc2nc(N3CCN(c4ccc(F)cc4)CC3)c3nncn3c2c1` was 3.16 µM [falling, partial curve, poor fit]; that for `COc1ccccc1-c1cc2nc(C)c(CCC(=O)NC3CCCCC3)c(C)n2n1` was 1 µM [falling, full curve].
For `Cc1ccc(-c2nc(CNC(=O)NC3CCCCC3)c(C)o2)cc1`, under setting [1], the half-maximal activity concentration (AC50) is 31.6 µM [falling, partial curve, poor fit].
Same read-out and setting: for `CC(=O)c1cccc(NC(=O)Nc2cc3c(cc2N2CCCC2)n(C)c(=O)n3C)c1` the value was 31.6 µM [rising, partial curve] [measured here: IkB-luc green channel].
Consider `CCc1ccc(C(=O)Nc2cccc(-c3nc4cc(C(C)C)ccc4o3)c2)cc1`, for which the concentration at half-maximal activity (AC50) under setting [1] is 0.398 µM [falling, full curve].
Same read-out and setting: for `CCn1c(=O)c(C(=O)NCCc2ccccc2)c(O)c2ccccc21` the value was 1 µM [falling, partial curve]; for `COc1ccc(Cn2c(SCc3ccc(C(=O)NCc4cccs4)cc3)nc3ccncc32)cc1`, 12.6 µM [falling, partial curve]; for `O=S(=O)(c1ccccc1)c1nc(-c2ccco2)oc1SCc1ccc(F)cc1`, 0.1 µM [rising, full curve, poor fit].
On the same count and under the same terms, the value for `O=C(CCCn1c(=O)[nH]c2ccsc2c1=O)N1CCN(c2ccc(Cl)cc2)CC1` was 25.1 µM [falling, partial curve]; that for `O=C(CSc1nnc(-c2ccc(Cl)cc2)c(-c2ccc(Cl)cc2)n1)NC1CCCC1` was 12.6 µM [falling, partial curve]; that for `CCOC(=O)c1c(C)[nH]c(C)c1S(=O)(=O)N(C)CC(=O)N1CCN(c2cccc(Cl)c2)CC1` was 12.6 µM [falling, partial curve].
On to `Cc1cc(C)cc(NC(=O)Cn2c(=O)n(CC(=O)NCCc3ccccc3)c(=O)c3ccccc32)c1`, for which, under setting [1], the concentration at half-maximal activity (AC50) was 12.6 µM [falling, partial curve].
The same measure, in the same setting: the value for `COc1ccc(C(=O)Nc2nnc(SCc3cc(=O)n4cc(Cl)ccc4n3)s2)cc1` was 7.94 µM [falling, single point]; that for `Cc1ccc(C(=O)c2cn(Cc3c(F)cccc3Cl)c3nc(C)ccc3c2=O)cc1` was 20 µM [falling, partial curve].
The same measure, in the same setting: the value for `Cc1cccc(NC(=O)Nc2cccc(C#N)c2)n1` was 3.98 µM [falling, full curve, poor fit].
